PubChem BioAssay AID720505 | Drosophila RNAi Screening Center, 2013
Assay: 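Knock-downs that reduce calcium influx once internal stores are emptied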 (primary screen). Cell system: Drosophila S2R+ cells. Knock-down reagent: long dsRNA against Drosophila genes. Challenge: thapsigargin (2 µM) in calcium-free buffer to empty internal stores, then 2 mM calcium added back. Measurement: 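Stores emptied by 2 µM thapsigargin without calcium, then 2 mM calcium re-added; fluo-4 fluorescence followed by FLIPR in 384-well plates, per-well averaged endpoint, raw; two screen passes, some wells retested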. Direction: calcium signal and retest calcium signal: higher = more calcium entry after store depletion. Call rule: 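Knock-downs counted as hits when calcium entry dropped relative to STIM1 positive and Rho1 negative controls present on each plate; roughly 1500 genes called, with reductions of differing size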. Calls: active = called as lowering calcium entry; inactive = not called.
In all, the deposit lists about 20,000 reagents; below is an unselected part of those that have a named target and a result. Of all reagents, about 2,100 (10%) got an active call. 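Raw plate signals without normalisation; calls rest on control-based scores that were not deposited; replicate 2 separates called from uncalled poorly.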 Reagents against one gene are numbered here. Names joined by + are all predicted targets of the reagent. Not given: the amount of reagent, the time to read-out.

The first 4 entries, to show the layout:
calcium signal, replicate 1	calcium signal, replicate 2	retest calcium signal, replicate 1	retest calcium signal, replicate 2	activity call	target	dsRNA no.
135	188			inactive	Pngl	1
189	189			inactive	Had2	1
155	94.1			inactive	Bmcp	1
141	91.7			inactive	CG34286	1

Results, repeating the preview:
calcium signal, replicate 1	calcium signal, replicate 2	retest calcium signal, replicate 1	retest calcium signal, replicate 2	activity call	target	dsRNA no.
135	188			inactive	Pngl	1
189	189			inactive	Had2	1
155	94.1			inactive	Bmcp	1
141	91.7			inactive	CG34286	1
87.3	68			inactive	Jon66Ci	1
68.4	278			active	schlank	1
70.6	270			active	schlank	2
95.6	118			inactive	CG2765	1
194	119			inactive	CG11562	1
89.2	6672			inactive	Egfr	1
174	83.1			inactive	Egfr	2
123	100			inactive	Pex3	1
109	162	84.1	5226	active	l(3)neo38	1
176	119			inactive	l(3)neo38	2
164	101			inactive	l(3)neo38	3
56.7	61.6			active	RpS12	1
150	96.1			inactive	CG30286	1
141	112			inactive	Ssb-c31a	1
103	153			inactive	yellow-e	1
136	147			inactive	hng2	1
144	161			inactive	CG43318	1
112	90.5			inactive	ABCB7	1
70	93.5			active	CG13272	1
125	161			inactive	CG13272	2
68.5	77.6			active	CatB	1
159	152			inactive	CG7903	1
113	124			inactive	TMEM216 + CG11760	1
112	88.2			inactive	CG3764	1
129	173			inactive	mus302	1
72.9	134			inactive	Atox1	1
97	127			inactive	Dscam1	1
88	82.2			inactive	Dscam1	2
85.9	141			inactive	Dscam1	3
193	117			inactive	Dscam1	4
89	205			inactive	Dscam1	5
110	115			inactive	CG6106	1
134	162			inactive	Or35a	1
80.8	99.4			inactive	Osi17	1
126	174			inactive	Or47b	1
91.1	134			inactive	Cpr47Eb	1
142	99.1			inactive	Lar	1
100	104			inactive	Lar	2
222	109			inactive	CG8051	1
108	95.4			inactive	CG3618	1
100	98.4			inactive	Pbgs	1
68.6	217			inactive	CG10628	1
103	172	89.7	126	inactive	CG4053	1
156	228			inactive	Hsp60B	1
100	182			inactive	CG10650	1
82.9	90			inactive	exd	1
75	113	8304	101	inactive	kn	1
94.3	118			inactive	kn	2
101	179			inactive	kn	3
169	178			inactive	kn	4
192	109			inactive	kn	5
174	147			inactive	CG6138	1
